Taken from: PubChem BioAssay AID1259424 (University of Nebraska Medical Center, 2018)

Purpose: 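Rank knockdowns across the genome by resemblance to the KSR1 depletion profile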 (primary screen)
Cells: human HCT116 colon cancer cells
Knock-down reagent: siRNA pool against human genes, 50 nM
Read-out: 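Six signature mRNAs by branched-DNA multiplex assay, scaled to two housekeeping genes and non-targeting median, log2; matched to mean KSR1 knockdown profile by Pearson correlation and euclidean distance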
Reading the numbers: mean correlation with KSR1 profile: higher = expression change more like KSR1 knockdown; mean distance from KSR1 profile: higher = expression change less like KSR1 knockdown
The deposit covers about 14,000 reagents; shown is a random part of them. 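Higher correlation or smaller distance means closer resemblance to KSR1 loss; control wells, including KSR1 knockdowns, recur on many plates.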 Further read-outs or replicates are left out here. The record does not give: the time to read-out.

LNPEP | mean correlation with KSR1 profile = 0.167; mean distance from KSR1 profile = 1.97
FAM193B | mean correlation with KSR1 profile = -0.522; mean distance from KSR1 profile = 2.63
PRSS50 | mean correlation with KSR1 profile = -0.341; mean distance from KSR1 profile = 2.3
FBXL7 | mean correlation with KSR1 profile = 0.00834; mean distance from KSR1 profile = 1.19
SEC62 | mean correlation with KSR1 profile = 0.675; mean distance from KSR1 profile = 3.98
TK1 | mean correlation with KSR1 profile = 0.272; mean distance from KSR1 profile = 2.41
SFRP2 | mean correlation with KSR1 profile = 0.394; mean distance from KSR1 profile = 4.92
TAOK3 | mean correlation with KSR1 profile = 0.118; mean distance from KSR1 profile = 2.05
MOXD1 | mean correlation with KSR1 profile = -0.281; mean distance from KSR1 profile = 1.49
HBB | mean correlation with KSR1 profile = 0.00316; mean distance from KSR1 profile = 2.59
MFAP3L | mean correlation with KSR1 profile = -0.396; mean distance from KSR1 profile = 2.69
CEBPA-DT | mean correlation with KSR1 profile = 0.659; mean distance from KSR1 profile = 2.02
ZNF384 | mean correlation with KSR1 profile = -0.175; mean distance from KSR1 profile = 2.49
CENPBD1P | mean correlation with KSR1 profile = -0.283; mean distance from KSR1 profile = 1.1
GNG13 | mean correlation with KSR1 profile = 0.224; mean distance from KSR1 profile = 1.86
TSFM | mean correlation with KSR1 profile = -0.0189; mean distance from KSR1 profile = 2.12
TRAPPC2 | mean correlation with KSR1 profile = 0.657; mean distance from KSR1 profile = 1.71
CNRIP1 | mean correlation with KSR1 profile = 0.0897; mean distance from KSR1 profile = 1.52
FHIP1B | mean correlation with KSR1 profile = 0.635; mean distance from KSR1 profile = 1.69
RBM15B | mean correlation with KSR1 profile = 0.303; mean distance from KSR1 profile = 2.12
TRIP10 | mean correlation with KSR1 profile = 0.129; mean distance from KSR1 profile = 1.64
HKDC1 | mean correlation with KSR1 profile = 0.801; mean distance from KSR1 profile = 1.34
RSRP1 | mean correlation with KSR1 profile = -0.0847; mean distance from KSR1 profile = 3.52
AKR7L | mean correlation with KSR1 profile = -0.254; mean distance from KSR1 profile = 3.49
ACACA | mean correlation with KSR1 profile = -0.175; mean distance from KSR1 profile = 3.81
PITHD1 | mean correlation with KSR1 profile = -0.317; mean distance from KSR1 profile = 4.25
ARG2 | mean correlation with KSR1 profile = -0.804; mean distance from KSR1 profile = 4.72
SRPRA | mean correlation with KSR1 profile = -0.011; mean distance from KSR1 profile = 1.35
